“And” between values parts separate entries of the source, which are not always exact repeats. Equal values may be shown once. At least one read-out could not be matched to a standard name with certainty.
System: Mycosphaerella graminicola isolate FLU4-02
Experiment: Fungicide sensitivity testing by OD in 96 well plates, epoxiconazole plus enhancers
Format: cell-based
Settings: Enhancer Concentration 0 μg ml^−1 (epoxiconazole alone; one value per enhancer series)

## Fc1ccc([C@]2(Cn3cncn3)O[C@H]2c2ccccc2Cl)cc1 (racemic) [Epoxiconazole]
  Epoxiconazole EC50: 0.078 µg/mL and 0.084 µg/mL and 0.088 µg/mL and 0.077 µg/mL and 0.073 µg/mL

Source: patent US12213482B2, “Fungicide enhancers effective for treating plants infected with fungal pathogens” (Board of Regents, The University of Texas System, priority 2015, dated 2025)
